Measured values taken from PMC6858068.
These are yes or no findings as the source states them, for the method shown. Some binding calls cover weakened binding; strength is not graded here. For part of these data: Sequences can lack the tags named with a protein.

B1: His-tagged UBL4A (protein, UniProt P11441 1-157)
chain: MQLTVKALQGRECSLQVPEDELVSTLKQLVSEKLNVPVRQQRLLFKGKALADGKRLSDYSIGPNSKLNLVVKPLEKVLLEEGEAQRLADSPPPQVWQLISKVLARHFSAADASRVLEQLQRDYERSLSRLTLDDIERLASRFLHPEVTETMEKGFSK

Legend:
[1] = biological target: zebrafish His-tagged ASNA1 (wildtype) (zebrafish (Danio rerio)) (UniProt Q6IQE5)
[2] = biological target: zebrafish His-tagged ASNA1 A143V (zebrafish (Danio rerio)) (UniProt Q6IQE5)
GST-tagged GET4 = GST-tagged GET4 (UniProt Q7L5D6)

Row | Molecule | binding [1] | binding [2] | binding (GST-tagged GET4)
1 | 3HA-SEC61B, translated in the PURE system (from UniProt P60468 1-96) | binds | binds | –
2 | B1 | – | – | binds
